Assay results published in the supplement of paper PMC10849652.
The other results are listed elsewhere or left out.

Sequences of proteins named here, by UniProt entry; tags and fusion partners are left off. A change or cut given only in a name is not applied to a line headed by its entry.
UniProt P35998: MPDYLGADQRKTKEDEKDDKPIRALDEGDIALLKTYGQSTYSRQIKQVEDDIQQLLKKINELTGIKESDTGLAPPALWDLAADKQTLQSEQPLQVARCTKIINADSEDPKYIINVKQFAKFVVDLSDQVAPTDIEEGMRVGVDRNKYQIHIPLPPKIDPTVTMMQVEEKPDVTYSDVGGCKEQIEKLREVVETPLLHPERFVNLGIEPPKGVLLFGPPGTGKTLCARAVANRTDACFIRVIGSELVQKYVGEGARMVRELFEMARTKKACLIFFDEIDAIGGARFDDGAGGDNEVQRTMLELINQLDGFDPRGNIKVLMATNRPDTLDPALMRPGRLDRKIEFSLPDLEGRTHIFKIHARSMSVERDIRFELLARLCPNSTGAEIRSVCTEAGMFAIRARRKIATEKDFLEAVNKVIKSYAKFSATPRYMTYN
UniProt Q9H3S7: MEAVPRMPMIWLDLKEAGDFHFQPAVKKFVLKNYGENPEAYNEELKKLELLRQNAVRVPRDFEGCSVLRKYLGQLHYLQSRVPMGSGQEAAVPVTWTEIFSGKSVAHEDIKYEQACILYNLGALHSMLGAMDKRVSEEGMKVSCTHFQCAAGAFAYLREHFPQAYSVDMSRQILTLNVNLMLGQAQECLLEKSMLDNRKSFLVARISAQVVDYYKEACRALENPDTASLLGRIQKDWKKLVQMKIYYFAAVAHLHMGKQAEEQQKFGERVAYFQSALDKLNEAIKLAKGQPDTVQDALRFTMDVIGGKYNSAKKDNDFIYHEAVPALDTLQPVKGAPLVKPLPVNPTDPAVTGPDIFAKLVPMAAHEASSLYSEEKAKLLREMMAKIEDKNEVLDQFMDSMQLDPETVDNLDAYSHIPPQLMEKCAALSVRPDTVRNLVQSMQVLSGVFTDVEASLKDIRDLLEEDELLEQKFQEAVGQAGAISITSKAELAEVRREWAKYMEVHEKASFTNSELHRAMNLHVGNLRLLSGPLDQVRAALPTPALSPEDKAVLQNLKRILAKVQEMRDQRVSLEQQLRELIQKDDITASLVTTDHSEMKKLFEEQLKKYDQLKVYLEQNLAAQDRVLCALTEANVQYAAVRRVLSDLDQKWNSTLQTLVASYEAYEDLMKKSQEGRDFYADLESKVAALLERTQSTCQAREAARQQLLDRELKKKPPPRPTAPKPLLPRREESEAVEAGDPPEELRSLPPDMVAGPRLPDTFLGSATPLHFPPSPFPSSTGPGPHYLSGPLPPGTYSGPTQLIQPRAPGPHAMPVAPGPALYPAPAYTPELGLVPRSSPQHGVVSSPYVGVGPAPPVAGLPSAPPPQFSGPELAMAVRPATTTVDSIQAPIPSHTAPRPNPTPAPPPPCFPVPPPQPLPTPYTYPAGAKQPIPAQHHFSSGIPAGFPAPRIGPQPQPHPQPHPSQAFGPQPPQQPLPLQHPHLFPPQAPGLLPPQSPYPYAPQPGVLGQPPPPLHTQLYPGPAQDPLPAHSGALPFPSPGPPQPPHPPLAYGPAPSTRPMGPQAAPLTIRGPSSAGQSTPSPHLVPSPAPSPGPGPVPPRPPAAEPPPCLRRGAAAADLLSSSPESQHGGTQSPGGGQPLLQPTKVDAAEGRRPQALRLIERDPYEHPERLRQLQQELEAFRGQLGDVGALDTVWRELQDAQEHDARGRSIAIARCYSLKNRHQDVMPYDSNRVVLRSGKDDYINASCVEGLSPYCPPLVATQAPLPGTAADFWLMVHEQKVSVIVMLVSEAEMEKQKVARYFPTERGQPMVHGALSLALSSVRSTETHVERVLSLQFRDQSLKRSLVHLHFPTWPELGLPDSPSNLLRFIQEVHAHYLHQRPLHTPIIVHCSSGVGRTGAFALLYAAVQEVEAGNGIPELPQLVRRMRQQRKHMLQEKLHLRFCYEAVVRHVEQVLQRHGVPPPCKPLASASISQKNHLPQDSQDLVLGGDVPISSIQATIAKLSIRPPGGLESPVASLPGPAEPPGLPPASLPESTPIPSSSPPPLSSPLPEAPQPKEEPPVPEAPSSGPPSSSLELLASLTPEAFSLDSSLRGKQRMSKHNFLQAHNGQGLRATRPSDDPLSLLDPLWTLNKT
UniProt O95758: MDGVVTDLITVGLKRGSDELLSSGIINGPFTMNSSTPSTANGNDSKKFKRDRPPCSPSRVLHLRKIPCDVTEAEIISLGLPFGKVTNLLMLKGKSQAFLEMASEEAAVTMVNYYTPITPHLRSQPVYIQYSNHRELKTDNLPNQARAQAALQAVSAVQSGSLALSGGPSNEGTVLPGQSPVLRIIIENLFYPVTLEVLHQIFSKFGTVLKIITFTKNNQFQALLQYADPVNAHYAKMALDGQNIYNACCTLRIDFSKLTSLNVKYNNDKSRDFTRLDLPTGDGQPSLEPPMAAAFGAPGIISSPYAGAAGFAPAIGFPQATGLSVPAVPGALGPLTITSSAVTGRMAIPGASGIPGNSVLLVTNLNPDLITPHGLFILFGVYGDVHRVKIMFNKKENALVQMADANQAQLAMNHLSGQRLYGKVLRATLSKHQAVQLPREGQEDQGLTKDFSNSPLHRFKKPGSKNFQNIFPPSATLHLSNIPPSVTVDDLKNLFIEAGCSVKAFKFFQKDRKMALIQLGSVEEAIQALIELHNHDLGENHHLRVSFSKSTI
UniProt Q8TB72: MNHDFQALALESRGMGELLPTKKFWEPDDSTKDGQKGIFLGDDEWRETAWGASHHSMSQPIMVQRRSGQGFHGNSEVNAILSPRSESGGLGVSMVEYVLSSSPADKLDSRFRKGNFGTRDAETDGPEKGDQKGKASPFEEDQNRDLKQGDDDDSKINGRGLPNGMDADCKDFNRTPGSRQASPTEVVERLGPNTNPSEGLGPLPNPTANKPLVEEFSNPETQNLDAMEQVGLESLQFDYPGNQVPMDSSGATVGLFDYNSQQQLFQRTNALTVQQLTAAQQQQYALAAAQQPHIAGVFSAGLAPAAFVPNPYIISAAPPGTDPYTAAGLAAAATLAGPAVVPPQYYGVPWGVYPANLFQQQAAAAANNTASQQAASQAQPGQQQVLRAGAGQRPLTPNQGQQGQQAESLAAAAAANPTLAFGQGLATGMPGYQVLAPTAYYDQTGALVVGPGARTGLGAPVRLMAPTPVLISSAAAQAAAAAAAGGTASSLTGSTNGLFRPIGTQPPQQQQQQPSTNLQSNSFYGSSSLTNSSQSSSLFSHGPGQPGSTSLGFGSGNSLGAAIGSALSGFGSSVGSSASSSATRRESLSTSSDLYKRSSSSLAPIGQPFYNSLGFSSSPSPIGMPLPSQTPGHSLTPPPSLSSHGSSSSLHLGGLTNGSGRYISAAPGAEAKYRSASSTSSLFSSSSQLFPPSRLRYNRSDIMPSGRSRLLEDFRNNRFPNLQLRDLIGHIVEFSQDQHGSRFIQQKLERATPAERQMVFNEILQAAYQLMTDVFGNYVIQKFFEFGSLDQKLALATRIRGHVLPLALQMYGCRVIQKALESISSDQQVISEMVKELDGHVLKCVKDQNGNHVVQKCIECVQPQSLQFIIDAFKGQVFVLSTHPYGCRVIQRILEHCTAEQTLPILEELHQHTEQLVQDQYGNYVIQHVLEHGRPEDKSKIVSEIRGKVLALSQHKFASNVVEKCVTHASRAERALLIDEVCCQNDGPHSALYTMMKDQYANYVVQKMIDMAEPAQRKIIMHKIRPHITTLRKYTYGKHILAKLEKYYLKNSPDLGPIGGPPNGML
UniProt P49721: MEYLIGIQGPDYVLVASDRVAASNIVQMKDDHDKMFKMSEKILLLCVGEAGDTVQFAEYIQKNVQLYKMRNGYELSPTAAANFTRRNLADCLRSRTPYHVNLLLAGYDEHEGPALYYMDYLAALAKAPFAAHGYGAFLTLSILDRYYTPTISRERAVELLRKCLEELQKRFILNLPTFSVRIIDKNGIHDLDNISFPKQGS
UniProt P48634: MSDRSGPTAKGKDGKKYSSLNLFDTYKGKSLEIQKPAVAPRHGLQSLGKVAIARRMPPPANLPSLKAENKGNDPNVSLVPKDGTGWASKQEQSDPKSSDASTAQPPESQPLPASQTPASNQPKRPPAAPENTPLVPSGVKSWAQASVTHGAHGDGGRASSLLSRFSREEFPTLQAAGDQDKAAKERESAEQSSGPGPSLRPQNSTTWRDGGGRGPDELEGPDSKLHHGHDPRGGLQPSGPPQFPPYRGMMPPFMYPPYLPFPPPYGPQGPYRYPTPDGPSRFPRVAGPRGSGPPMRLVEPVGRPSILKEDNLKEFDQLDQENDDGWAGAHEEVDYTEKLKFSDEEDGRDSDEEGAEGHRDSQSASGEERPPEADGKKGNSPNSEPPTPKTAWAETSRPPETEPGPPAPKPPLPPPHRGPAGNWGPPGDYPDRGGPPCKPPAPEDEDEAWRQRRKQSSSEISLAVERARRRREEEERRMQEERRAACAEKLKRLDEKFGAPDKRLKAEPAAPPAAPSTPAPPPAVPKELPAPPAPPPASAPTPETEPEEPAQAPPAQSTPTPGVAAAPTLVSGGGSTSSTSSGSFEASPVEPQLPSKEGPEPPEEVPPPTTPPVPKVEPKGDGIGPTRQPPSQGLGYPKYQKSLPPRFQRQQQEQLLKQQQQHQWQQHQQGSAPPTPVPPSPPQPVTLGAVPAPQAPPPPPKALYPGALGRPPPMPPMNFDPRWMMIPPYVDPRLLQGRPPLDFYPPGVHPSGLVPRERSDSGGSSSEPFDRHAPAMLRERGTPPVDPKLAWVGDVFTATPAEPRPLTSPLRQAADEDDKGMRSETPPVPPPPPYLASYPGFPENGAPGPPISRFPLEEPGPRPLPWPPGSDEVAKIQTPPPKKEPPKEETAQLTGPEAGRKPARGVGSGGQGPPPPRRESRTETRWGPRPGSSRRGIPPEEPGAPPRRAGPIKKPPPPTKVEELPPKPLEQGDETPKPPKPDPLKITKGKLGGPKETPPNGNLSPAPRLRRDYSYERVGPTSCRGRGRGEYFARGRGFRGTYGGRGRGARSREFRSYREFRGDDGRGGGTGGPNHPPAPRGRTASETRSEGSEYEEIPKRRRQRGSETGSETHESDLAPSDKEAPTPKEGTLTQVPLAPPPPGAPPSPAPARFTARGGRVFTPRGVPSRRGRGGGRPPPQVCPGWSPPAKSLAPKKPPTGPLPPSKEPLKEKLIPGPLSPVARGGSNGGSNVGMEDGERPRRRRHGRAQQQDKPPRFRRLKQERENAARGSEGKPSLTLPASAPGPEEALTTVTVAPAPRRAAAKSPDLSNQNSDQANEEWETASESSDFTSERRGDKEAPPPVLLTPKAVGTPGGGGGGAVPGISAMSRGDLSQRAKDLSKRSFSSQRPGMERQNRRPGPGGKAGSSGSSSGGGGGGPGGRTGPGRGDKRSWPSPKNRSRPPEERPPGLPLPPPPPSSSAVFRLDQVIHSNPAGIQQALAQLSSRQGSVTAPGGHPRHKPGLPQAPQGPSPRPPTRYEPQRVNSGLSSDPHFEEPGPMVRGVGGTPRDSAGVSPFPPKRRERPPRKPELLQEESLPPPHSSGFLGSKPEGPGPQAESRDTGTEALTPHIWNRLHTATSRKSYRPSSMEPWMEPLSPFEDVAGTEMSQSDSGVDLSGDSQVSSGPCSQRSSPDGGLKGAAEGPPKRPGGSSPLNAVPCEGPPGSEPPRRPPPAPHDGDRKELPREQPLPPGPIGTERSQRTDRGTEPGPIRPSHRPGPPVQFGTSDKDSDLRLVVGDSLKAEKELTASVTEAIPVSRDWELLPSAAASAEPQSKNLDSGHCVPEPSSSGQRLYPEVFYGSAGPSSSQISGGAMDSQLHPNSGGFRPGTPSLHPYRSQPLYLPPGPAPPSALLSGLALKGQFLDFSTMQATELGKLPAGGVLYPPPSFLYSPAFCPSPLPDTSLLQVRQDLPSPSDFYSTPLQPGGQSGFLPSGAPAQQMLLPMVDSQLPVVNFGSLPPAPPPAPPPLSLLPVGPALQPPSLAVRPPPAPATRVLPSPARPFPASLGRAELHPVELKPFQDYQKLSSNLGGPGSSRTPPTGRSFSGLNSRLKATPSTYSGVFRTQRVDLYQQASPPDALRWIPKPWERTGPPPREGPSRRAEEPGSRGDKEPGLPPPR
UniProt Q96M27: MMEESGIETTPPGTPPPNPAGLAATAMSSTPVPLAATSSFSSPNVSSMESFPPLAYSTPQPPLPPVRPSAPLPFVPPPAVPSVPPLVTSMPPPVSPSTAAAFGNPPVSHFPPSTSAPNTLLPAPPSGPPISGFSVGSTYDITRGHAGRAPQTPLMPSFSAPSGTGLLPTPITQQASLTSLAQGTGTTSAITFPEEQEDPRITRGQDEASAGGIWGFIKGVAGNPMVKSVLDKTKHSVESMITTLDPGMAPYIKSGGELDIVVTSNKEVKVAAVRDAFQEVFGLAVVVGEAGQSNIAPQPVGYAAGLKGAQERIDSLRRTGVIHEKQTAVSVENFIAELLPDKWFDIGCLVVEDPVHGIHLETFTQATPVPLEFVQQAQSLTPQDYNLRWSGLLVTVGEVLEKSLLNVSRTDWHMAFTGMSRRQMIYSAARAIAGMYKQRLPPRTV

Tests used:
Assay in all cases: log2 fold change, soluble protein after heating vs DMSO (PISA); higher = thermal stabilisation; K562 lysate, 10 uM; active = over 0.2 and 3.5 SD of the protein, either way, in both replicates (recomputed)
ibrutinib = compound: C=CC(=O)N1CCC[C@@H](n2nc(-c3ccc(Oc4ccccc4)cc3)c3c(N)ncnc32)C1 [ibrutinib]
Method in brief: (§1)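 A 30 min treatment with 10 μM compound was applied to crude K562 extract at 1 mg/mL protein in PBS pH 7.4 with 1 mM MgCl2. Heating for 3 min spanned 48°C-58°C, after which aliquots were pooled, adjusted to 0.5% NP-40 at 4°C and spun at 21,000xg for 90 min. TMTpro 16plex LC-MS/MS of the supernatant, with channel sums equalised, gave values recorded as log-two fold change in thermal stability against solvent controls, from duplicates.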

[1] = compound: CC(=O)c1cnc2ccc(-c3cc(Cl)c(O)c(Cl)c3)nc2c1N[C@H]1CC[C@H](CN(C)C)CC1
Method in brief: as §1

ralimetinib = compound: CC(C)(C)Cn1c(N)nc2ccc(-c3[nH]c(C(C)(C)C)nc3-c3ccc(F)cc3)nc21 [ralimetinib]
Method in brief: as §1

[2] = compound: CC(C)(O)CC(=O)NCCn1ccc2ncnc(Nc3ccc(Oc4cccc(C(F)(F)F)c4)c(Cl)c3)c21
Method in brief: as §1

[3] = compound: CC(C)C1=C2N=C(C=C(N2N=C1)NCC3=CC=CC=C3)NCCCCCCN
Method in brief: as §1

[4] = compound: CC1=C(C(CC(=O)N1)C2=CC=C(C=C2)C(F)(F)F)C(=O)NC3=C(C=C4C(=C3)C=NN4)F
Method in brief: as §1

[5] = compound: CC1=C(C2=C(C=C1)C(=O)C3=CC=CC=C3N2CCCN)C
Method in brief: as §1

[6] = compound: CC1=C(C=C(C=C1)NC(=O)C2=CC(=CC=C2)C(C)(C)C#N)NC3=CC4=C(C=C3)N=CN(C4=O)C
Method in brief: as §1

[7] = compound: CC1=C(C=C(C=C1)NC(=O)C2=CC(=CC=C2)N(C)C)NC(=O)C3=CC=C(C=C3)O
Method in brief: as §1

[8] = compound: CC1=CC=C(C=C1)SC2=C3C=C(SC3=CN=C2)C(=O)N
Method in brief: as §1

Measured: log2 fold change

PSMC2 (UniProt P35998)
inactive: ibrutinib -0.009 | [1] -0.009 | ralimetinib 0.029 | [2] -0.008 | [3] 0.011 | [4] -0.036 | [5] 0.014 | [6] -0.015 | [7] 0.007 | [8] 0.005

PTGS1 isoform 6 (UniProt P23219)
inactive: ibrutinib 0.109 | [1] 0.022 | ralimetinib -0.001 | [2] -0.075 | [3] -0.043 | [4] 0.023 | [5] -0.039 | [6] 0.023 | [7] -0.011 | [8] -0.026

PSMA4 (UniProt P25789)
inactive: ibrutinib -0.009 | [1] -0.014 | ralimetinib -0.01 | [2] -0.021 | [3] -0.003 | [4] -0.022 | [5] -0.031 | [6] 0.01 | [7] 0.004 | [8] -0.005

PTPRC (UniProt P08575)
inactive: ibrutinib 0.009 | [1] -0.004 | ralimetinib 0.01 | [2] -0.008 | [3] -0.01 | [4] 0 | [5] -0.006 | [6] 0 | [7] -0.021 | [8] -0.013

PTPN23 (UniProt Q9H3S7)
inactive: ibrutinib 0.024 | [1] 0.007 | ralimetinib 0.029 | [2] 0.007 | [3] -0.019 | [4] -0.014 | [5] 0.01 | [6] -0.015 | [7] 0.009 | [8] 0.012

PTGES2 (UniProt Q9H7Z7)
inactive: ibrutinib -0.035 | [1] -0.092 | ralimetinib -0.004 | [2] 0.167 | [3] 0.132 | [4] -0.029 | [5] -0.002 | [6] 0.001 | [7] -0.082 | [8] 0.036

PTBP3 isoform 4 (UniProt O95758)
inactive: ibrutinib -0.019 | [1] -0.024 | ralimetinib 0.01 | [2] 0.02 | [3] 0.024 | [4] -0.035 | [5] 0.064 | [6] 0.011 | [7] 0 | [8] 0.014

PUM2 (UniProt Q8TB72)
inactive: ibrutinib -0.018 | [1] 0.013 | ralimetinib 0.095 | [2] -0.022 | [3] 0.076 | [4] 0.089 | [5] 0 | [6] -0.186 | [7] 0.029 | [8] 0.025

Quoted from the entries so far (2 entries):
PTGES2 (UniProt Q9H7Z7)
inactive: ibrutinib -0.035 | [1] -0.092 | ralimetinib -0.004 | [2] 0.167 | [3] 0.132 | [4] -0.029 | [5] -0.002 | [6] 0.001 | [7] -0.082 | [8] 0.036

PTBP3 isoform 4 (UniProt O95758)
inactive: ibrutinib -0.019 | [1] -0.024 | ralimetinib 0.01 | [2] 0.02 | [3] 0.024 | [4] -0.035 | [5] 0.064 | [6] 0.011 | [7] 0 | [8] 0.014

Next results

PURA (UniProt Q00577)
inactive: ibrutinib -0.017 | [1] 0.043 | ralimetinib -0.022 | [2] -0.008 | [3] -0.009 | [4] 0.044 | [5] -0.06 | [6] -0.075 | [7] 0.074 | [8] -0.02

PSMB2 (UniProt P49721)
inactive: ibrutinib 0.04 | [1] -0.003 | ralimetinib -0.011 | [2] -0.042 | [3] -0.007 | [4] -0.032 | [5] -0.008 | [6] 0.024 | [7] -0.004 | [8] -0.002

PURB (UniProt Q96QR8)
inactive: ibrutinib 0.02 | [1] 0.002 | ralimetinib 0.02 | [2] -0.009 | [3] -0.038 | [4] 0.008 | [5] -0.032 | [6] -0.044 | [7] 0.017 | [8] 0

PSMG2 (UniProt Q969U7)
inactive: ibrutinib 0.017 | [1] 0.014 | ralimetinib -0.015 | [2] -0.004 | [3] 0.021 | [4] -0.021 | [5] -0.002 | [6] 0.012 | [7] -0.024 | [8] 0.008

PRRC2A (UniProt P48634)
active: [6] -0.26
inactive: ibrutinib 0.006 | [1] -0.014 | ralimetinib -0.01 | [2] -0.02 | [3] 0.002 | [4] 0.015 | [5] -0.003 | [7] 0.003 | [8] -0.026

PSMB9 (UniProt P28065)
inactive: ibrutinib -0.073 | [1] -0.196 | ralimetinib 0.052 | [2] -0.01 | [3] 0.011 | [4] 0.003 | [5] -0.047 | [6] 0.096 | [7] -0.027 | [8] -0.178

PTTG1IP (UniProt P53801)
inactive: ibrutinib -0.039 | [1] -0.079 | ralimetinib -0.089 | [2] -0.022 | [3] -0.066 | [4] 0.051 | [5] 0.123 | [6] -0.246 | [7] -0.009 | [8] -0.036

PUF60 (UniProt Q9UHX1)
inactive: ibrutinib 0.011 | [1] -0.004 | ralimetinib -0.034 | [2] 0.013 | [3] 0.018 | [4] -0.02 | [5] 0.009 | [6] -0.003 | [7] -0.001 | [8] 0.004

PTK7 isoform 6 (UniProt Q13308)
inactive: ibrutinib 0.012 | [1] 0.085 | ralimetinib 0.022 | [2] -0.091 | [3] 0.003 | [4] -0.038 | [5] -0.053 | [6] 0.005 | [7] -0.005 | [8] -0.027

PSRC1 (UniProt Q6PGN9)
inactive: ibrutinib 0.138 | [1] 0.017 | ralimetinib -0.006 | [2] -0.013 | [3] 0.049 | [4] 0.02 | [5] -0.081 | [6] 0.163 | [7] -0.052 | [8] -0.002

PRRC1 (UniProt Q96M27)
inactive: ibrutinib 0.03 | [1] -0.015 | ralimetinib -0.028 | [2] -0.03 | [3] 0.026 | [4] 0.014 | [5] -0.023 | [6] -0.016 | [7] 0.018 | [8] -0.019

PSMD13 (UniProt Q9UNM6)
inactive: ibrutinib -0.016 | [1] 0.015 | ralimetinib 0.029 | [2] 0 | [3] -0.009 | [4] -0.02 | [5] 0.025 | [6] 0.012 | [7] -0.006 | [8] 0.026

PSMA7 (UniProt O14818)
inactive: ibrutinib -0.015 | [1] 0.011 | ralimetinib -0.012 | [2] 0 | [3] 0.007 | [4] -0.029 | [5] -0.015 | [6] -0.025 | [7] 0.013 | [8] 0.024

PSMB7 (UniProt Q99436)
inactive: ibrutinib -0.006 | [1] -0.013 | ralimetinib -0.009 | [2] -0.024 | [3] -0.018 | [4] -0.007 | [5] -0.004 | [6] 0.031 | [7] -0.019 | [8] -0.004

PTCD3 (UniProt Q96EY7)
inactive: ibrutinib -0.023 | [1] -0.016 | ralimetinib -0.001 | [2] 0.032 | [3] 0.028 | [4] -0.017 | [5] -0.128 | [6] -0.005 | [7] 0.02 | [8] -0.008

PTMA isoform 2 (UniProt P06454)
inactive: ibrutinib -0.053

PRPS2 isoform 2 (UniProt P11908)
inactive: ibrutinib -0.009 | [1] 0.036 | ralimetinib 0.038 | [2] 0.019 | [3] -0.033 | [4] -0.015 | [5] 0.021 | [6] 0 | [7] -0.033 | [8] 0.008

PTPN9 (UniProt P43378)
inactive: ibrutinib -0.15 | [1] 0.179 | ralimetinib -0.094 | [2] -0.149 | [3] 0 | [4] 0.236 | [5] 0.025 | [6] -0.156 | [7] -0.001 | [8] -0.12

PTK2 (UniProt Q05397)
inactive: ibrutinib 0.085 | [1] 0.188 | ralimetinib -0.002 | [2] 0.044 | [3] -0.015 | [4] -0.024 | [5] 0.011 | [6] -0.054 | [7] -0.007 | [8] -0.128

PTMA (UniProt P06454)
inactive: ibrutinib 0.015 | [1] 0.028 | ralimetinib -0.121 | [2] 0.009 | [3] 0.004 | [4] -0.068 | [5] 0.006 | [6] 0.023 | [7] -0.015 | [8] 0.002

PTPN11 isoform 1 (UniProt Q06124)
inactive: ibrutinib 0.005 | [1] -0.009 | ralimetinib -0.004 | [2] 0.038 | [3] 0.017 | [4] -0.007 | [5] 0.004 | [6] -0.035 | [7] -0.004 | [8] 0.01

PSPC1 (UniProt Q8WXF1)
inactive: ibrutinib 0.019 | [1] -0.006 | ralimetinib 0.022 | [2] 0.002 | [3] 0.011 | [4] -0.003 | [5] -0.001 | [6] 0 | [7] 0.015 | [8] -0.026
